Measurements taken from publication PMC5355995.
For part of these data: No signal at the amounts used counts as a negative. Protein sequences can lack the tags named with them. A weaker result is weaker than the reference pair of the same experiment. For part of these data: For at least one entry, the source does not settle the construct or the ends of the probe.

Columns and labels:
[1] = molecular target: T1, Rex-His6 (Streptomyces avermitilis ATCC31267) (UniProt Q82E78); assay: DNase I footprinting; details: footprinting: 400 ng DNA in 25 ul, 30 min at 25 C, DNase I 40 s at 37 C, salt and pH not stated, recombinant protein, residues 1-213, protein details: C-terminal His6, probe letters rebuilt from the primers and the genome
T1 sequence (looked up): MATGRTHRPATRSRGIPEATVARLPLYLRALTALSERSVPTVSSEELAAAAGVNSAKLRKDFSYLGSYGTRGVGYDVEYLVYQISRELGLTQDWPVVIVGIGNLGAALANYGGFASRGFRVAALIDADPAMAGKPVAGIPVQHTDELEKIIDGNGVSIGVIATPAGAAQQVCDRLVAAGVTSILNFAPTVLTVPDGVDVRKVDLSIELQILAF

[2] = molecular target: T1, Rex-His6 (Streptomyces avermitilis ATCC31267); assay: EMSA; details: EMSA: DIG Gel Shift Kit (Roche) binding buffer, 1 ug poly[d(I-C)] in 20 ul, 30 min at 25 C, 5% native PAGE in 0.5x TBE, recombinant protein, residues 1-213, protein details: C-terminal His6, probe letters rebuilt from the primers and the genome
[3] = 1.2 or 2.4 uM Rex, label: FAM 5'
[4] = NADH, label: DIG-11-ddUTP 3' (EMSA), FAM 5' (footprint)
[5] = up to 0.8 uM Rex, label: DIG-11-ddUTP 3'

CCTCTGGACCCTTGCTCGCGGGTGCGGCGATGGCCTTCTCCTCCGGCTCGGGCGGTCAATCCGCCCGAGCCGTTTCCGCGGTCACCGCACCGCCATACATACCGGTCACCCGGTATTCCATTCGGTGTTGCAGCACGCGACCCACTGCGCATCCCACTCGTGAATTGTGGACCGCCATCCGGGGCACGGATGTCTCCAGGAAGGAACTCCTTCACCCTCGCGAACACCACCTCAGAATCCCACGATCATCAGTTAATCATCAAAGTCAGCGACCTTGACACTACCCCGCCCACCAGGGCAAATTCATAACACTGACCATCACCTCTGATGCTGATCAACCCAGCCCGCACGGCCGCGACCGCTTTTGCTCAAGCAATCGAAATCCCCGAGACACGCTTTCTTGGAAAAAGGAGAAATAAGAACATCATGCAGGGAGTTTCCTGTCTGCACCCCCTCGGAAACCAGAAGAACTCACG (double strand) [aveR promoter footprint fragment]
binding result ([1]; 10 or 15 uM Rex, weak half-site binding, label: FAM 5'): binds more weakly

GGTGGGCAGAGCACAGTGCAGGAGCGTTCGGGCGTCGTTGGACTGCATTGCGGCAGCTCCTCCGGCGAAATCTTGGGGGGGTTCGTTTCGGTCGTCGAGAGATGACCCTAGCCCGAGGTGAACGAGGCGTGCCTCGTACGGGCGGCCTGTCTCGCTCCGGCCGCCCCAATATATCTCGGGTTCTCGTGAACCGTATCACAAACTATTTGATGCAGTCTTTACCCGGAAGTGTGCTCACCGTCACACGAACGGGCCATGCGGTAGCTCAGCGAGATGACACCGCGGGTGTGGACTTGGTATGCGCGCGTGATCGCGAGCGCGGGCGGTGCGCGCGTGCTCAGTACGTGTAGAAACCCTGCCCGGACT (double strand) [atpI promoter footprint fragment]
binding result [1, 3]: binds

GCTTCATGATCCTTCGCCAGGTGGCAGAGATCACAAACTCCTTACTTACCCCCGTGTCGCAGATCACAGACCGCCGGGCATAGGATGCGCAGCAGTTGGGCTTGTGACCTGCTTCACATGTACGCGATCTTCGTCGGGACGCACGGGGTTCGTGGGACGTGTGAGGCGGGAGTGCTCGCCCGACGCAACCTCCCCCAAGGTCTCGGCTCCGCTCGACCAGGGGGACCCCCATGCAGTCAGTGCCGACTGAGAGGAGCGAGGAGCGTGAA (double strand) [nuoA1 promoter EMSA probe]
binding result ([2]; NADH, label: DIG-11-ddUTP 3'): binds more weakly

GAGTCTCTACGTGGCGATCGAGACGGCCCGCAACACCGGCCTCCACAGAGAGCCAGAACCCCTCCTCAATCCAAAGGACCACGTCAGTCCGTCTGACGATCGGCCCTTCACTTGTTGAGGGATTCGTGAAAGCGTTCACATTCACAAGCAACCTGAATGTAATACCAAGGAGAGGTAGCAGCCATGGA (double strand) [wblE promoter EMSA probe]
binding result ([2]; NADH, label: DIG-11-ddUTP 3'): binds more weakly

CGTTGTCCAGGTGTTCTACGCGTACGGGCCTTCGGCAGGGCCTGGGTCGGTCGGGGTGTCGGCGAGGGTCGCGGTGAGATGTCCTGCGGGCCGGGAGAGCCGTATCCGCGGGGCCCGTTTTCGGCAGAGAGGTGACGGGGTCCGTTCTTAGGGACCCCCCACCCCTCTGACTTCGAACAGCCATGGGTCATAATTGCTTGTGAATGTGAACGCGTTCACAAGCGTGTCCGGGTTGTCCCGTGATGTGTGTGACATGCACGGCAAACTGCCGCTGTGACCACGGCGACGAAAGGAGAACGACGTGGAATTGGCTCTGGCGCCGGAGACCCTGGCGCGATGGCAGTTCGGCATCACCACC (double strand) [cydA1 promoter probe]
binding result ([2]; NAD+ up to 1 mM, label: DIG-11-ddUTP 3' (EMSA), FAM 5' (footprint)): binds
binding result [2, 4]: binds more weakly
binding result ([2]; two retarded bands, label: DIG-11-ddUTP 3' (EMSA), FAM 5' (footprint)): binds
binding result ([1]; 1.2 or 2.4 uM Rex, label: DIG-11-ddUTP 3' (EMSA), FAM 5' (footprint)): binds

GATGGCCTTCTCCTCCGGCTCGGGCGGTCAATCCGCCCGAGCCGTTTCCGCGGTCACCGCACCGCCATACATACCGGTCACCCGGTATTCCATTCGGTGTTGCAGCACGCGACCCACTGCGCATCCCACTCGTGAATTGTGGACCGCCATCCGGGGCACGGATGTCTCCAGGAAGGAACTCCTTCACCCTCGCGAACACCACCTCAGAATCCCACGATCATCAGTTAATCATCAAAGTCAGCGACCTTGACACTACCCCGCCCACCAGGGCAAATTCATAACACTGACCATCACCTCTGATGCTGATCAACCCAGCCCGCACGGCCGCGACCGCTTTTGCTCAAGCAATCGAAATCCCCGAGACACGCTTTCTTGGAAAAAGGAGAAATAAGAACATCATGCAGGGAGTTTCCTGTCTGCACCCCCTCGGAAACCAGAAGAACTCACG (double strand) [aveR promoter EMSA probe]
binding result [2, 5]: no binding

GCTGTCGTGGCGATCTACTCCAGGAAACGTAGACCTTTTTCTGCCACTTGTCCGAGCTATGCAGACACCCCGATCCCCTAAGAAATGAACACCCTTGGGAACGGCACAGCCCAGGGGTGGATAGGGGTATTCGCCGCCGCCGCGCCGTCATTAGCTTTGAAGAGTTGAAGACGTTCAAGACATTGATGCCCGGCCGTCAGCGGATTTCTCGCGCTCCTTTCATTCTTCGACGCTGCATTGCAGCTCTCATCATGTCCGCACGGCCGCCGAGCATTGCCTAGCGGTGAGGACACAGCTCAGGTGCAGAGGATGGACGG (double strand) [aveD-A1 intergenic probe]
binding result [2, 5]: no binding

CTCGGATGCTTCGCGTATGAAGATCACCGCTCATCCGGCTTCATGATCCTTCGCCAGGTGGCAGAGATCACAAACTCCTTACTTACCCCCGTGTCGCAGATCACAGACCGCCGGGCATAGGATGCGCAGCAGTTGGGCTTGTGACCTGCTTCACATGTACGCGATCTTCGTCGGGACGCACGGGGTTCGTGGGACGTGTGAGGCGGGAGTGCTCGCCCGACGCAACCTCCCCCAAGGTCTCGGCTCCGCTCGACCAGGGGGACCCCCATGCAGTCAGTGCCGACTGAGAGGAGCGAGGAGCGTGAA (double strand) [nuoA1 promoter footprint fragment]
binding result [1, 3]: binds

CAGTTGCCACGGTGCTCCTGCGGGTAGCGCGGGGCTGCAGGCGGTCACACGTACCTAGACCGCCCCGTCGAAAGCAGGCTATGTCTTTGTGAACGCGTGCACAAAGATAGTGTCCGATTTGCCCGGCCAACGTGACCGGGGTCACGCGCCCCCGGCGTATGCGTATGGAACCGGCACACAGGCGCCTTCGTTCCTCACTCGACGGGGGCAAAACCGCACACACTCCTCAACGATCCACGCCCCCCGAGACCAAACCGCCCCCGATCCTAAGCGACTTTCCGGGCTGTTTGGACTACTC (double strand) [rex promoter probe]
binding result [2, 4]: binds more weakly
